Laboratory results taken from PubChem BioAssay AID720541 (National Center for Advancing Translational Sciences (NCATS), 2013).
About 420 (32%) of roughly 1,300 compounds were called active. This list was built around the results that the source calls inconclusive (neither active nor inactive); the mix of calls is not that of the screen. Calls come from the whole dose curve; as a rule, active = well fitted inhibition curve with a large enough effect; inconclusive = small, poorly fitted or top-dose-only effect; inactive = no such curve, though single readings can be large or run the other way. A potency beside an inconclusive call is a rough fit, not a confirmed value.
% is set by controls: 0 for no effect and ±100 for the full control effect; potency is the fitted concentration of half-maximal effect.
Note: nearly all actives have a fitted effect of over 65% in size.

What follows are molecules tested against C-terminal-binding protein 1 (Homo sapiens) (UniProt Q13363) (assay: qHTS for Inhibitors of the Phosphatase Activity of Eya2: Carboxyl-terminal binding protein (CtBP) Counterscreen for Cherry-picked Compounds). Conditions: purified protein-protein binding, AlphaScreen, 3 h; activity change, negative = inhibition: at 46.1 µM (top of the series).
Method in brief: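 AlphaScreen using 25 nM GST-E1A with 25 nM CtBP-6xHIS; compounds at 2.5 nM–46 uM final, 2 h at room temperature, then donor/acceptor beads (20 ug/mL) for 1 h in the dark. Signal normalized to E1A peptide inhibitor (maximum inhibition) and DMSO.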
With `Cc1cc(C)c2c(c1)NC(C(=O)O)C1CC=CC21` (stereo not given) the Potency was inconclusive: 15.1 µM [inhibitor, partial curve].
For `COc1cc(OC)c(NC(=O)c2ccc3c(SCC(=O)O)c4c(nc3c2)CCCC4)cc1Cl`, the Potency was inconclusive: 16.9 µM [inhibitor, partial curve].
With `C=CCn1c(C)cc(C(=O)COc2ccc(N(C)S(=O)(=O)c3ccc(NC(C)=O)cc3)cc2)c1C` the “activity change, negative = inhibition” value was inactive: -22.4%.
`C=CCN1C(=O)C(=Cc2ccc3c(c2)CCC3)SC1=S` was tested, and the Potency was inconclusive: 8.49 µM [inhibitor, partial curve].
In the case of `COc1cccc(-c2sc3ccc(OC)cc3c2-c2ccc(OCCN(C)C)cc2)c1`, the Potency is reported as inconclusive: 15.1 µM [inhibitor, partial curve].
With `CCCn1nc(C(=O)Nc2cc(OCC)c(N3CCOCC3)cc2OCC)c2ccccc2c1=O` the activity change, negative = inhibition was inconclusive: -27.5% [inhibitor].
For `O=C(O)c1ccc(CSc2nc3ccccc3c(=O)n2-c2ccccc2)cc1`, the “activity change, negative = inhibition” value was inactive: 3.87%.
For `O=C(NNC(=O)c1cc2cc(Br)ccc2oc1=O)c1ccc(O)cc1`, the “activity change, negative = inhibition” value was inactive: 24.4%.
In the case of `COc1cc(C(C(=O)NC2CCCCC2)N(C(=O)Cc2c[nH]c3ccccc23)c2ccc(C)cc2)cc(OC)c1OC` (stereo not given), the “activity change, negative = inhibition” value is reported as inactive: -17%.
`O=C(COC(=O)CC1CCCC1)Nc1ccccc1[N+](=O)[O-]` was tested, and the Potency was inconclusive: 21.3 µM [inhibitor, single point].
With `COc1ccc(N2CCN(C(c3ccco3)c3sc4nc(C)nn4c3O)CC2)cc1` (stereo not given) the “activity change, negative = inhibition” value was inactive: -20.4%.
With `O=C1N=c2ccccc2=C1c1sc(Nc2cccc(O)c2)nc1O` the “activity change, negative = inhibition” value was inactive: -25.1%.
For `COc1ccc(N(CC(=O)N2CCCCC2)S(=O)(=O)c2c(C)nn(C)c2C)cc1`, the “activity change, negative = inhibition” value was inactive: 7.56%.
In the case of `COc1cc(NC(=O)c2cccs2)c(OC)cc1NC(=O)Cc1ccccc1`, the Potency is reported as active: 7.57 µM.
With `Cc1ccc(C(=O)N2CCN(c3ccc4c(c3)C3CC4CCN3C(=O)OCc3ccccc3)CC2)cc1` (stereo not given) the Potency was inconclusive: 15.1 µM [inhibitor, partial curve].
In the case of `OCCN(Cc1cccnc1)Cc1ccccn1`, the Potency is reported as active: 5.36 µM.
With `O=C(O)c1cc(N2N=C(C(F)(F)F)/C(=C/C=C/c3ccco3)C2=O)ccc1Cl` the Potency was inconclusive: 16.9 µM [inhibitor, partial curve].
With `N#Cc1c(-c2ccccc2Cl)noc1/C=C/Nc1ccc(C(=O)O)cc1` the Potency was inconclusive: 19 µM [inhibitor, single point].
With `O=C(/C=C/c1cccc([N+](=O)[O-])c1)Nc1cccc(NC(=O)c2cccs2)c1` the “activity change, negative = inhibition” value was inactive: -26.4%.
In the case of `Cn1c(-c2cc(Cl)ccc2O)nc2c1c(=O)[nH]c(=O)n2Cc1ccccc1`, the “activity change, negative = inhibition” value is reported as inactive: 7.81%.
In the case of `O=C(Nc1cccc(-c2nnc(-c3ccco3)o2)c1)c1ccccc1`, the Potency is reported as inconclusive: 2.69 µM [inhibitor, full curve].
In the case of `O=C1C=C(Nc2ccc(O)cc2)C(=O)c2ccccc21`, the Potency is reported as inconclusive: 6.75 µM [inhibitor, partial curve].
With `O=C(Nc1ccc(S(=O)(=O)Nc2ncccn2)cc1)C1=NN(c2ccccc2)C(=O)CC1` the Potency was inconclusive: 15.1 µM [inhibitor, partial curve].
In the case of `O=S(=O)(O)c1ccc(O)c2cc(Nc3ccccc3)ccc12`, the Potency is reported as inconclusive: 13.5 µM [inhibitor, partial curve].
With `COc1cccc(C2c3[nH]c4ccccc4c3CCN2Cc2cnn(C)c2)c1` (stereo not given) the “activity change, negative = inhibition” value was inactive: -26.5%.
With `O=[N+]([O-])c1ccc(/C=C2\C=C(C(O)c3ccc([N+](=O)[O-])cc3)c3ccccc32)cc1` (stereo not given) the Potency was inconclusive: 12 µM [inhibitor, partial curve].
`CCOc1ccc2c(c1)-c1c(ssc1=S)C(C)(C)N2C(=O)CSC1=NCCS1` was tested, and the Potency was active: 15.1 µM.
For `CC(=O)Nc1ccc2nc(C3CC3)n(Cc3ccc(Cl)cc3)c(=O)c2c1`, the “activity change, negative = inhibition” value was inactive: -17.5%.
In the case of `CCC1Cc2c(nc(N)c3c(N)nc(N4CCOCC4)c(C#N)c23)O1` (stereo not given), the Potency is reported as inconclusive: 15.1 µM [inhibitor, single point].
For `O=C(O)CCCCCNS(=O)(=O)c1cccc2c1C(=O)c1ccccc1C2=O`, the Potency was active: 5.36 µM.
With `COCc1cc(=O)n2[nH]c(-c3ccsc3-n3c(C)ccc3C)cc2n1` the Potency was inconclusive: 10.7 µM [inhibitor, partial curve].
`Cc1ccccc1-c1cnc(C(O)c2c(C)cccc2C)[nH]1` (stereo not given) was tested, and the “activity change, negative = inhibition” value was inactive: -9.32%.
`O=C(CSc1nnc(-c2ccco2)c(-c2ccco2)n1)c1ccccc1` was tested, and the Potency was inconclusive: 13.5 µM [inhibitor, partial curve].
`COc1ccc(C(=O)Nc2cc(OC)c(NC(=O)Nc3ccccc3)cc2OC)cc1` was tested, and the “activity change, negative = inhibition” value was inactive: -9.63%.
In the case of `CC(C)Nc1nnc(SCC(=O)Nc2ccc3c(c2)C(=O)c2ccccc2C3=O)s1`, the Potency is reported as active: 5.36 µM.
`O=S(=O)(Nc1cccc(-c2cn3cccnc3n2)c1)c1ccc(F)cc1` was tested, and the Potency was active: 15.1 µM.
For `COc1ccc(/C=C/C(=O)Nc2ccc3nc4n(c(=O)c3c2)CCCC4)cc1`, the “activity change, negative = inhibition” value was inactive: -17.7%.
`COc1ccc(N2CCN(Cc3cc4c(cc3Br)OCCO4)CC2)cc1` was tested, and the Potency was active: 12 µM.
With `Cc1cc(NC(=O)CSc2nnc(Nc3ccccc3F)s2)no1` the “activity change, negative = inhibition” value was inactive: 3.43%.
`CSc1cccc(NC(=O)CCCOc2cc(=O)n(C)c3ccccc23)c1` was tested, and the “activity change, negative = inhibition” value was inactive: 3.84%.
For `Cc1cc(Br)c(NC(=O)c2ccccc2[N+](=O)[O-])cc1C`, the “activity change, negative = inhibition” value was inactive: 0.85%.
In the case of `COc1ccc(CCn2c(C3CCCCC3)nc3c(c(=O)c4ccccc4n3C)c2=O)cc1`, the Potency is reported as inconclusive: 12 µM [inhibitor, partial curve].
In the case of `COc1cc(NC(=O)c2ccc(S(=O)(=O)N(C)c3ccccc3)cc2)cc(OC)c1`, the “activity change, negative = inhibition” value is reported as inactive: -17%.
In the case of `Oc1c(C(Nc2nc3ccccc3s2)c2ccco2)ccc2cccnc12` (stereo not given), the Potency is reported as active: 6.75 µM.
With `CCc1nc2ccc(C(=O)NCCOc3ccc(OC)cc3)cn2c1N(CCC(C)C)CCN(C)C` the “activity change, negative = inhibition” value was inactive: -15%.
In the case of `O=C(CSc1nc(-c2ccccc2)nc2c1Cc1ccccc1O2)Nc1ccc(C(=O)O)cc1`, the Potency is reported as inconclusive: 15.1 µM [inhibitor, partial curve].
In the case of `Cn1c(O)c(C2=c3ccccc3=NC2=O)[nH]c1=S`, the Potency is reported as inconclusive: 9.53 µM [inhibitor, partial curve].
With `Cn1cccc1/C=N/N1CCN(Cc2ccccc2Cl)CC1` the Potency was inconclusive: 13.5 µM [inhibitor, partial curve].
With `O=C(NCCOc1ccccc1)c1ncn[nH]1` the Potency was inconclusive: 13.5 µM [inhibitor, partial curve].
`O=C(O)C(Cc1ccccc1)N1C(=O)/C(=C/C=C/c2ccco2)SC1=S` (stereo not given) was tested, and the Potency was inconclusive: 15.1 µM [inhibitor, single point].
For `CNC(=O)c1ccc(Nc2nnc(-c3ccc(C(N)=O)cc3)c3ccccc23)cc1`, the Potency was active: 6.75 µM.
In the case of `O=C1N=c2ccccc2=C1c1[nH]c(=S)[nH]c1O`, the Potency is reported as inconclusive: 6.75 µM [inhibitor, partial curve].
With `COc1ccc(/C=C2\SC(=S)N(CC3CCCO3)C2=O)cc1` (stereo not given) the Potency was inconclusive: 12 µM [inhibitor, partial curve].
In the case of `CC(C)Cn1c(SC(C)C(=O)Nc2ccc(N3CCOCC3)cc2)nc2ccccc21` (stereo not given), the “activity change, negative = inhibition” value is reported as inactive: -22.3%.
For `COCCNC(=O)c1cccc(OC2CCN(Cc3ccc(F)cc3OC)CC2)c1`, the “activity change, negative = inhibition” value was inactive: 0.126%.
`Cc1ccccc1C(=O)NC(=S)Nc1ccccc1N1CCCC1` was tested, and the Potency was inconclusive: 6.01 µM [inhibitor, partial curve].
For `COc1ccc(C(=O)Nc2ccc3nc(C)sc3c2)cc1S(=O)(=O)N1CCOCC1`, the Potency was active: 21.3 µM.
For `CC1C=CCC2C(=O)N(c3ccc(OC(=O)c4cccs4)cc3)C(=O)C12` (stereo not given), the “activity change, negative = inhibition” value was inactive: -14.7%.
With `Cc1cccc(S(=O)(=O)C(C#N)c2nc3ccccc3nc2N2CCOCC2)c1` (stereo not given) the “activity change, negative = inhibition” value was inactive: -9.38%.
In the case of `O=c1oc(-c2ccco2)nc2ccccc12`, the Potency is reported as active: 13.5 µM.
With `Cc1ccc(-n2[nH]c(C)c(C=Nc3ccc(S(=O)(=O)Nc4nccs4)cc3)c2=O)cc1C` the Potency was active: 7.57 µM.
In the case of `CCC(=O)N1c2ccc(S(=O)(=O)N3CCN(c4ccc([N+](=O)[O-])cc4)CC3)cc2CC1C` (stereo not given), the “activity change, negative = inhibition” value is reported as inactive: -6.96%.
In the case of `CCOc1ccc(N=c2cc(-c3ccc(OC)cc3)oc3ccccc23)cc1`, the Potency is reported as inconclusive: 12 µM [inhibitor, partial curve].
In the case of `COc1cc(/C=N/N2CCN(Cc3ccc(Cl)cc3)CC2)ccc1OC(C)=O`, the Potency is reported as inconclusive: 15.1 µM [inhibitor, partial curve].
`c1ccc(COc2cccc(CNCc3ccccn3)c2)cc1` was tested, and the Potency was inconclusive: 15.1 µM [inhibitor, single point].
For `O=C(CSc1nnc(CNC(=O)c2ccccc2)o1)Nc1nccs1`, the Potency was inconclusive: 16.9 µM [inhibitor, single point].
In the case of `CCCCc1cc(=O)oc2cc(OCC(=O)N3CCC(C(=O)O)(c4ccccc4)CC3)ccc12`, the “activity change, negative = inhibition” value is reported as inactive: -36.1%.
With `O=C(/C=C/c1ccc(O)c(O)c1)OC(Cc1ccc(O)c(O)c1)C(=O)O` (stereo not given) the “activity change, negative = inhibition” value was inactive: -4.19%.
With `CC(=O)c1ccc(OC(=O)/C=C/c2ccccc2)cc1` the Potency was active: 0.536 µM.
For `CC(C)n1ncc2c(C(=O)N3CCN(Cc4ccc(Br)s4)CC3)cc(C3CC3)nc21`, the “activity change, negative = inhibition” value was inactive: -21.5%.
`COc1ccc(-c2c(N)cnc(C(=O)O)c2C)c(OCc2ccccc2)c1OC` was tested, and the Potency was active: 12 µM.
With `COCc1cc(O)c(O)c(O)c1-c1c(COC)cc(O)c(O)c1O` the “activity change, negative = inhibition” value was inactive: 37.1%.
For `O=[S+]([O-])([O-])c1ccc2c(c1)cc([S+](=O)([O-])[O-])c1nn(-c3ccc(/C=C/c4ccc(-n5nc6c([S+](=O)([O-])[O-])cc7cc([S+](=O)([O-])[O-])ccc7c6n5)cc4[S+](=O)([O-])[O-])c([S+](=O)([O-])[O-])c3)nc12`, the Potency was inconclusive: 30.1 µM [inhibitor, single point].
`Cc1ccc2c(/C=C/c3ccc(N(C)C)cc3)c(C)cnc2c1` was tested, and the Potency was active: 10.7 µM.
With `Cc1ccc(NC(=O)Nc2ccnc(-c3cccnc3)n2)cc1` the Potency was inconclusive: 0.478 µM [inhibitor, full curve].
